Laboratory results: PubChem BioAssay AID1053208 (Peter MacCallum Cancer Centre, 2014)

Purpose: 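Synthetic lethal interactions between gene loss and doxorubicin in osteosarcoma cells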 (primary screen)
Cell system: mouse osteosarcoma cells, early-passage culture from an engineered mouse model of fibroblastic bone tumour
Reagents: siRNA pool against mouse genes, 40 nM
Time to read-out: about 120 h (48 h before drug, then 72 h with drug)
Challenge: doxorubicin 100 nM for 72 h, roughly 30-40% inhibitory dose
Read-out: 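Viability read as ATP luminescence after 72 h of 100 nM doxorubicin or none, duplicate wells averaged, scaled to non-targeting siRNA, then expressed as robust z-scores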
Direction: viability z-score with doxorubicin: higher = more viable cells under doxorubicin; viability z-score without drug: higher = more viable cells with knock-down alone
Rule for the call: 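Called active if knock-down leaves viability unchanged without drug (z within -2 to 2) but lowers it with doxorubicin (z at or under -2)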
The whole screen tested about 17,000 reagents; this is a part drawn at random. 788 of them (4.7%) were called active. 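Calls rest on z-score classes alone; an extra cut-off of viability at most 70% of control was not applied to them.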 Unmarked entries are inactive. Further read-outs or replicates are left out here.

Depletion of Senp2 (SUMO/sentrin specific peptidase 2) gave: combined z-score class low cell count with doxorubicin only (active); viability z-score with doxorubicin -2.02; viability z-score without drug -1.52. Knock-down of Mthfs (5, 10-methenyltetrahydrofolate synthetase) came out at: combined z-score class no change with or without drug; viability z-score with doxorubicin 0.11; viability z-score without drug 0.17. With knock-down of Ubtd1 (ubiquitin domain containing 1), the record shows combined z-score class no change with or without drug; viability z-score with doxorubicin -1.57; viability z-score without drug -0.17. Fcer1g (Fc receptor, IgE, high affinity I, gamma polypeptide) gave combined z-score class no change with or without drug; viability z-score with doxorubicin -1.24; viability z-score without drug -0.34. For Syngr3 (synaptogyrin 3) the deposit lists combined z-score class no change with or without drug; viability z-score with doxorubicin -1.57; viability z-score without drug -0.17. After knock-down of Pde1b (phosphodiesterase 1B, Ca2+-calmodulin dependent), the screen gave combined z-score class no change with or without drug; viability z-score with doxorubicin 0; viability z-score without drug -0.51.

After knock-down of Or8c20 (olfactory receptor family 8 subfamily C member 20) the results were combined z-score class no change with or without drug; viability z-score with doxorubicin -0.45; viability z-score without drug 1.18. Ppm1a (protein phosphatase 1A, magnesium dependent, alpha isoform) gave combined z-score class no change with or without drug; viability z-score with doxorubicin 1.12; viability z-score without drug -0.34. Depletion of Inhbe (inhibin beta-E) gave: combined z-score class no change with or without drug; viability z-score with doxorubicin -1.24; viability z-score without drug -1.18. For Vmn1r218 (vomeronasal 1 receptor 218), the values are combined z-score class no change with or without drug; viability z-score with doxorubicin -1.57; viability z-score without drug -0.84. After knock-down of Bdnf (brain derived neurotrophic factor) the results were combined z-score class no change with or without drug; viability z-score with doxorubicin 0.9; viability z-score without drug 1.01. After knock-down of Acp1 (acid phosphatase 1, soluble), the record shows combined z-score class low cell count with and without drug; viability z-score with doxorubicin -2.36; viability z-score without drug -2.19.

Only “combined z-score class” (2 entries from above):
Syngr3 (synaptogyrin 3) = no change with or without drug
Pde1b (phosphodiesterase 1B, Ca2+-calmodulin dependent) = no change with or without drug
